Laboratory results as given in PubChem BioAssay AID743266 (National Center for Advancing Translational Sciences (NCATS), 2014).
The whole screen tested about 410,000 compounds, of which about 310 (0.076%) were called active. Inconclusive means that the source gave no clear call. Such entries were picked first, then a sample of the others. Calls come from the whole dose curve; as a rule, active = well fitted activation curve with a large enough effect; inconclusive = small, poorly fitted or top-dose-only effect, or another doubt; inactive = no such curve, though single readings can be large or run the other way. A potency beside an inconclusive call is a rough fit, not a confirmed value. Residues, ends and D or L forms follow the SMILES beside them. *: point of attachment. Boc = CC(C)(C)OC(=O)*

Protein sequences, listed by entry. Tags and fused reporters are not part of them. Lines headed by an entry give the natural chain unless they say otherwise; changes in a name come on top.
UniProt Q03431: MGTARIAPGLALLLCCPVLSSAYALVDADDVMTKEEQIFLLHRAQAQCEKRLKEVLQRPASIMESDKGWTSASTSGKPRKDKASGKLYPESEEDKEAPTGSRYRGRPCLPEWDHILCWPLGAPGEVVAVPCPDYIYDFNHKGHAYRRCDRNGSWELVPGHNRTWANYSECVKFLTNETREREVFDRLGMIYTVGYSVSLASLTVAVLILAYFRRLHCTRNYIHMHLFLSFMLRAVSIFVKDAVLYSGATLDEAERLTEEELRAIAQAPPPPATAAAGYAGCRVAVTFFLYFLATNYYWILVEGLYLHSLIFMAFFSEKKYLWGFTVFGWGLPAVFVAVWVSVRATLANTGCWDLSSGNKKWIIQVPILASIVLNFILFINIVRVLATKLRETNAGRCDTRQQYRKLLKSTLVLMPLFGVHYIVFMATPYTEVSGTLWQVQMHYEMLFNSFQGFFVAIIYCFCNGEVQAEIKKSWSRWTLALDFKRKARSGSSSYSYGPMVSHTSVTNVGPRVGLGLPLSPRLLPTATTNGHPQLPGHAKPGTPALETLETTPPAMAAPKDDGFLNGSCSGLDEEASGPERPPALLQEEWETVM

Biological target: Parathyroid hormone/parathyroid hormone-related peptide receptor (Homo sapiens) (UniProt Q03431)
Assay: qHTS for PTHR1 Agonists: Primary Screen; note: nearly all actives have a fitted effect of over 55% in size
Settings: HEK293 GP2 PTHR1 cells, GloSensor cAMP luminescence, 1 h; activation: at 115 µM (top of the series) unless noted; series mostly up to 115 µM
Procedure, shortened: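 HEK-293-derived GP2 cells expressing PTHR1 and a GloSensor cAMP reporter, 3,000/well, plated overnight, given luciferin plus IBMX (each 0.5 mM as added) for 1 h at 37 °C, then compound for 1 h at 37 °C. Luminescence was read after 15 min at room temperature.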
Potency is the fitted concentration of half-maximal effect.

activation, inconclusive:
CCCS(=O)(=O)N1CC(=O)N(c2cc(C)ccc2C)C(C)(C(=O)NC2CCCCCC2)C1 (stereo unspecified) 59.1% [activator], Cc1cc2oc(C(=O)Nc3ccc(S(=O)(=O)Nc4ncccn4)cc3)cc(=O)c2cc1C 44.1% [activator], COc1cccc(NC(=O)C2=C(C)C(=O)OC23CCN(C(C)=O)CC3)c1 44.1% [activator], CC(C)C(NC(=O)OC(C)(C)C)C(=O)N1CCCC1C(=O)NC(Cc1ccccc1)C(N)=O (stereo not drawn) (Boc-Val-Pro-Phe-NH2; configuration not given here) 36.4% [activator], CC(OC(=O)c1cc(=O)[nH]c2ccccc12)c1ccccc1 (stereo unspecified) 1.3% [activator] [at 57.5 µM], Cc1noc(C)c1C(=O)Nc1ccc(F)cc1 37.5% [activator], CN(C)/C=C(\C#N)S(=O)(=O)C(C)(C)C 53.9% [activator], Cc1ccc(S(=O)(=O)N2CCCC2)s1 39.3% [activator], Cn1c(CSCc2ccc(Cl)cc2)n[nH]c1=S -20.9% [activator], COc1ccccc1CNC(=O)CN1C(=O)COc2ccc(S(=O)(=O)Nc3ccccc3)cc21 -32.1% [activator]

activation, inactive:
CC(=O)OCC1=C(C(=O)O)N2C(=O)C(NC(=O)CCn3nc(C)c(Cl)c3C)C2SC1 (stereo unspecified) -15.8%, Cc1cc(Nc2cccc(Cl)c2)nc(NCc2ccccc2)n1 -24.9%, CCc1ccc(CN2CCCC(CNS(=O)(=O)c3ccc(OC)cc3)C2)cc1 (stereo unspecified) 2.18%, CCOCCCN1C(=O)c2[nH]nc(-c3ccccc3O)c2C1c1ccc(CC)cc1 (stereo unspecified) -41.9%, O=C(N/N=C/c1cc2c3c(c1O)CCCN3CCC2)c1ccccc1O -31.4%, COc1ccc(C2c3sc(=O)[nH]c3SC3C4CCC(C4)C23)cc1OC (stereo unspecified) -24.5% [at 57.5 µM], Cc1ccc(NC(=O)CN2CCSc3ccc(S(=O)(=O)N4CCCC4)cc32)cc1 -34.5%, Cc1ccc(C)c(OCC(O)CN2CCc3ccccc3C2)c1C (stereo unspecified) -26.6%, COc1ccccc1N1CC(C)(C)C(=O)N(C(=O)c2ccc(Cl)cc2)C1=S -19.6%, CNCCC=C1c2ccccc2CCc2ccccc21 -5.32%, Cc1ccc(S(=O)(=O)NCCCN2CCOCC2)cc1C 5.13% [at 57.5 µM], O=C(CNCc1ccccc1Cl)Nc1ccc2c(c1)OCCO2 -72.2%, CCOC(=O)c1c(C)oc2ncnc(N3CCN(c4ccccc4F)CC3)c12 -9.66%, CCOc1cccc(C2c3[nH]c4ccccc4c3CCN2C(=O)c2ccccc2F)c1 (stereo unspecified) -11.3%, CC(=O)c1cn(CCOc2cc(C)ccc2C)c2ccccc12 -39.9%

Potency, inconclusive:
CCn1c(=O)c2c(nc3n2CCCN3Cc2ccccc2)n(C)c1=O 50.1 µM [activator, partial curve, poor fit], Cc1ncsc1C(=O)N1CCCC(CNS(=O)(=O)c2cccs2)C1 (stereo unspecified) 70.8 µM [activator, partial curve, poor fit], O=C(COc1ccc(S(=O)(=O)NC2CCCCC2)cc1Cl)NCc1ccc2c(c1)OCO2 39.8 µM [activator, single point], COCCCn1c(Cc2ccccc2)nnc1SCC(=O)N1CCCCC1 31.6 µM [activator, partial curve, poor fit], CCOc1ccc(CCNC(=O)COC(=O)COc2ccc(C(C)=O)cc2)cc1OCC 112 µM [activator, single point], COC(=O)CNC(=O)c1ccccc1F 126 µM [activator, single point], CCCN1CCN(CCCNC(=O)c2ccccc2NC(=O)C2=C(C)OCCS2)CC1 35.5 µM [activator, full curve, poor fit], CC(=O)NC(Cc1ccc(F)cc1)C(=O)NC1CCN(c2nnnn2-c2ccccc2)CC1 (stereo unspecified) 3.55 µM [activator, single point], COc1ccc(CN(C(=O)c2nsc(Cl)c2Cl)C(C(=O)NC2CCCC2)c2ccc(OC)cc2)cc1 (stereo unspecified) 100 µM [activator, single point], CCCn1c2ccccc2c2nnc(SCc3[nH]c(=O)[nH]c3C(=O)CCCCC(=O)OCC)nc21 17.8 µM [activator, partial curve, poor fit], CCOC(=O)C1CCN(C(=O)c2ccccc2N(C)S(C)(=O)=O)CC1 1.41 µM [activator, full curve, poor fit], O=C(O)CCN1C(=O)C(=C2CCCCCC2)SC1=S 31.6 µM [activator, partial curve, poor fit], COc1ccc(C(=O)N/C(=C\c2ccccc2)C(=O)Nc2ccc(C(=O)NCC(=O)O)cc2)cc1 39.8 µM [activator, partial curve, poor fit], O=C(Nc1ccccc1Cl)N(Cc1nc2ccccc2c(=O)[nH]1)Cc1cccs1 2.82 µM [activator, partial curve, poor fit], COCCNC(=O)c1c(-c2ccccc2)c(-c2ccccc2)nn(C)c1=O 50.1 µM [activator, partial curve, poor fit], COc1cccc(N2CCN(c3ncnc4c3c(-c3ccccc3)cn4-c3ccc(C)cc3)CC2)c1 158 µM [activator, single point], O=C(COC(=O)C1(c2cccc(F)c2)CCCC1)NCc1cccs1 100 µM [activator, single point]

outcome, inactive:
NC(=O)C1CCN(C(=O)c2ccc([N+](=O)[O-])cc2NC(=O)c2cccs2)CC1, COc1cc(CC(=O)OCC(=O)N(C)C2CCCCC2)cc(OC)c1OC, CC(C)CNC(=O)c1nn(Cc2ccccc2)c(=O)c2ccccc12, CC(Sc1nnc2ccccn12)C(=O)Nc1ncc(Cl)cc1Cl (stereo unspecified)
